From patent US20070232568A1, “Carbohydrate Composition and Its Use for the Preparation of a Medicament for Treating or Preventing Pulmonary Inflammation or Acute Respiration Distress Syndrome” (N.V. Nutricia, priority 2003, published 2007)
For at least one compound, name, drawing or mass did not settle the structure.

System: HepG2 cells
Test: Glutathione concentration in HepG2 cells after 24 hours incubation
Format: cell-based, human
Conditions: increasing concentrations in cell media, FIGS. 1 and 2

SMILES	glutathione levels in HepG2 cells
O=C(O)CC(=O)C(=O)O [oxaloacetate]	capable of increasing glutathione levels
CC(=O)C(=O)O [pyruvate]	capable of increasing glutathione levels
